# Data as given in PubChem BioAssay AID602196 (INSERM, 2012).
# Screen: 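Genes whose knock-down alters cisplatin killing of lung cancer cells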
# System: human A549 lung cancer cells
# Reagents: siRNA pair against human genes
# Timing: 48 h transfection before cisplatin; time from cisplatin to read-out not stated
# Conditions: cisplatin at a dose killing half of control-siRNA cells; exact dose and duration not given
# Measured: 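Cisplatin cell death as a shift from the 50% death seen with control siRNA; siRNAs toxic or growth-blocking alone scored 0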
# Direction: two-siRNA summed score (-2 to +2): higher = both siRNAs protect from cisplatin killing; -2 means both sensitise; mean protection from cisplatin (shift in death) and protection from cisplatin (shift in death), siRNA C and protection from cisplatin (shift in death), siRNA D: higher = protection from cisplatin killing
# Active means: 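siRNAs harmful alone (LDH or WST-1) get 0; others get +1 for less and -1 for more cisplatin killing; genes are active when the two siRNAs give the same sign, summing to ±2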
# Meaning of the calls: active = both siRNAs shift cisplatin killing the same way; inactive = no consistent shift, or siRNA harmful alone
# The whole screen tested about 23,000 reagents; shown is a random part of them. 455 of them (2%) were called active. 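Active includes both protection and sensitisation; some change values fall well beyond the stated -50 to +50 range.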 Reagents against one gene are numbered here. Not given: the amount of reagent.
target,reagent,two-siRNA summed score (-2 to +2),mean protection from cisplatin (shift in death) (%),"protection from cisplatin (shift in death), siRNA C (%)","protection from cisplatin (shift in death), siRNA D (%)",activity call
BARHL2 (GeneID 343472),1,1,10.6,9.8,11.3,inactive
LOC389730,1,1,1.8,23.5,-19.8,inactive
KNTC1 (GeneID 9735),1,0,5.7,8.5,3,inactive
KRI1 (GeneID 65095),1,0,-0.9,0,-1.8,inactive
GSK3A (GeneID 2931),1,0,4.5,2.6,6.5,inactive
H1-5 (GeneID 3009),1,1,13.8,-7.5,35,inactive
LOC136242,1,0,-4.1,-0.2,-7.9,inactive
PPID (GeneID 5481),1,0,-1.1,-0.6,-1.6,inactive
LOC401087,1,0,3.1,4,2.3,inactive
ZNF554 (GeneID 115196),1,0,10.7,13,8.3,inactive
HNRNPH2 (GeneID 3188),1,0,-0.2,1.6,-2,inactive
SCUBE3 (GeneID 222663),1,0,-4.9,-2,-7.9,inactive
LOC440409,1,1,8.1,3,13.2,inactive
ADH5 (GeneID 128),1,-1,-7.1,-11.9,-2.2,inactive
MPND (GeneID 84954),1,0,0.9,-7.1,8.9,inactive
LINC00301 (GeneID 283197),1,0,-2,9.1,-13.2,inactive
LOC441117,1,1,7.7,-1.2,16.5,inactive
IRF7 (GeneID 3665),1,0,-0.8,-4.7,3,inactive
KRT10-AS1 (GeneID 147184),1,0,3.1,6.5,-0.2,inactive
ZNF300 (GeneID 91975),1,1,16.6,20.4,12.8,inactive
GMPS (GeneID 8833),1,0,0.7,1.5,-0.2,inactive
TUFM (GeneID 7284),1,0,6.3,-0.4,13,inactive
CSNK1G2-AS1 (GeneID 255193),1,1,8.3,0.9,15.8,inactive
STAM2 (GeneID 10254),1,1,20.3,14.2,26.4,inactive
HP (GeneID 3240),1,-1,-28.6,-12.2,-45,inactive
CNTN4 (GeneID 152330),1,1,21.7,22.7,20.7,inactive
LOC442652,1,0,0.4,7.2,-6.5,inactive
XCL1 (GeneID 6375),1,0,5.3,10.5,0.1,inactive
CLP1 (GeneID 10978),1,0,3.2,20.4,-13.9,inactive
THTPA (GeneID 79178),1,-1,-7,-25.7,11.8,inactive
EIF4A2 (GeneID 1974),1,0,-3.7,-8.6,1.2,inactive
DYSF (GeneID 8291),1,0,1.4,1,1.7,inactive
OR2T6 (GeneID 254879),1,0,0.2,-18.3,18.7,inactive
PGC (GeneID 5225),1,0,-5.7,1.7,-13,inactive
LINC00312 (GeneID 29931),1,-1,-4,12.7,-20.6,inactive
LINC00312 (GeneID 29931),2,-1,-3.7,12.7,-20,inactive
STRADA (GeneID 92335),1,-1,2.3,-10.6,15.3,inactive
LINC00944 (GeneID 387895),1,0,16.7,21.5,11.9,inactive
PRDX1 (GeneID 5052),1,0,17,19.1,15,inactive
TGM2 (GeneID 7052),1,-1,-6.8,-14.4,0.8,inactive
XG (GeneID 7499),1,0,5.3,4.3,6.2,inactive
TIMM10B (GeneID 26515),1,0,5.4,12.8,-2,inactive
ECHS1 (GeneID 1892),1,0,-3.3,0.9,-7.4,inactive
FLJ45949,1,0,8.5,8.2,8.8,inactive
EIF3A (GeneID 8661),1,0,12.7,17.3,8.2,inactive

Reformatted: entries from further up
KRI1 (GeneID 65095) | two-siRNA summed score (-2 to +2) = 0; mean protection from cisplatin (shift in death) (%) = -0.9; protection from cisplatin (shift in death), siRNA C (%) = 0; protection from cisplatin (shift in death), siRNA D (%) = -1.8; activity call = inactive
GSK3A (GeneID 2931) | two-siRNA summed score (-2 to +2) = 0; mean protection from cisplatin (shift in death) (%) = 4.5; protection from cisplatin (shift in death), siRNA C (%) = 2.6; protection from cisplatin (shift in death), siRNA D (%) = 6.5; activity call = inactive
H1-5 (GeneID 3009) | two-siRNA summed score (-2 to +2) = 1; mean protection from cisplatin (shift in death) (%) = 13.8; protection from cisplatin (shift in death), siRNA C (%) = -7.5; protection from cisplatin (shift in death), siRNA D (%) = 35; activity call = inactive
LOC136242 | two-siRNA summed score (-2 to +2) = 0; mean protection from cisplatin (shift in death) (%) = -4.1; protection from cisplatin (shift in death), siRNA C (%) = -0.2; protection from cisplatin (shift in death), siRNA D (%) = -7.9; activity call = inactive
PPID (GeneID 5481) | two-siRNA summed score (-2 to +2) = 0; mean protection from cisplatin (shift in death) (%) = -1.1; protection from cisplatin (shift in death), siRNA C (%) = -0.6; protection from cisplatin (shift in death), siRNA D (%) = -1.6; activity call = inactive
LOC401087 | two-siRNA summed score (-2 to +2) = 0; mean protection from cisplatin (shift in death) (%) = 3.1; protection from cisplatin (shift in death), siRNA C (%) = 4; protection from cisplatin (shift in death), siRNA D (%) = 2.3; activity call = inactive

More records follow:
target,reagent,two-siRNA summed score (-2 to +2),mean protection from cisplatin (shift in death) (%),"protection from cisplatin (shift in death), siRNA C (%)","protection from cisplatin (shift in death), siRNA D (%)",activity call
MAPK8IP2 (GeneID 23542),1,-1,-7.9,10.9,-26.6,inactive
CYSLTR2 (GeneID 57105),1,1,9.2,10.7,7.8,inactive
PLAC4 (GeneID 191585),1,0,6.6,5.9,7.4,inactive
LOC391509,1,0,3,7.4,-1.4,inactive
PAX6 (GeneID 5080),1,0,3.7,6.6,0.9,inactive
ATXN7L2 (GeneID 127002),1,0,0.6,6,-4.7,inactive
NR1D1 (GeneID 9572),1,0,-7.3,-17.2,2.7,inactive
APPBP2 (GeneID 10513),1,1,14.1,8,20.2,inactive
SERPINB1 (GeneID 1992),1,0,2.4,-2.8,7.7,inactive
AKR1C8 (GeneID 340811),1,1,15.1,6.3,23.8,inactive
YIPF4 (GeneID 84272),1,0,5,3.2,6.9,inactive
CEBPG (GeneID 1054),1,0,11.7,6.5,16.9,inactive
ZSCAN4 (GeneID 201516),1,0,4.2,7.9,0.5,inactive
LOC400809,1,0,1.9,-2.6,6.5,inactive
PLK1 (GeneID 5347),1,0,10.8,12.2,9.5,inactive
RTL5 (GeneID 340526),1,0,5.7,1.2,10.2,inactive
DNAH8 (GeneID 1769),1,1,12.4,4.1,20.6,inactive
RCN2 (GeneID 5955),1,1,10.5,16.8,4.1,inactive
EDEM2 (GeneID 55741),1,0,-3.3,-8.4,1.8,inactive
ZMAT5 (GeneID 55954),1,0,11,10.3,11.8,inactive
LOC399876,1,0,2.1,7.1,-2.8,inactive
PRRC2A (GeneID 7916),1,0,13.1,17.9,8.3,inactive
PTPN21 (GeneID 11099),1,-1,-5.2,-11.5,1.1,inactive
MGC4767,1,0,1.1,15.9,-13.6,inactive
CHST13 (GeneID 166012),1,0,-11,-8.8,-13.2,inactive
UBR7 (GeneID 55148),1,0,7.6,11.4,3.9,inactive
PCYOX1L (GeneID 78991),1,0,2.8,1.1,4.4,inactive
LOC392374,1,0,18.3,1,35.7,inactive
